Measurements: PubChem BioAssay AID2685 (National Center for Advancing Translational Sciences (NCATS), 2010)
The list shows a part of the results. Further columns of the screen follow, without active or inactive calls. Compounds called inactive in the main read-out are mostly missing here. Words in brackets tell the shape of the fitted curve; partial curves, single points and poor fits give uncertain potencies.

Assay: qHTS Assay for Lipid Storage Modulators in Drosophila S3 Cells;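 for cell number change: cells counted by Cell Tracker Red CMTPX staining in the red channel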
Details: BODIPY lipid droplet fluorescence, 18-24 h; for cell number change: measured here: cell count max response, cells fed with added oleic acid
Method in brief: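 Drosophila S3 cells loaded with oleic acid (400 uM, as added) and compounds at several concentrations; lipid droplets imaged by 488-nm laser-scanning cytometry, 500–530 nm intensity and object ratio to cell channel. Percent activity normalized to 20 uM Triacsin C.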

[1] = measured here: cell number channel AC50, cells fed with added oleic acid
[2] = measured here: lipid fluorescence (Fed channel) AC50, cells fed with added oleic acid

Structure (SMILES)	cell number change [%]	AC50 [1]	AC50 [2]
COC(=O)c1ccc(CN2C(=O)NC3(CCC(C)CC3)C2=O)o1 (stereo not drawn)	-1.22		
CC(Sc1nnc(-c2ccncc2)n1C)C(=O)NCC1CCCO1 (stereo not drawn)	-3.61		
Cc1cc(C)c(S(=O)(=O)N2CCOC2CNC(=O)C(=O)NCCc2ccc(S(N)(=O)=O)cc2)c(C)c1 (stereo not drawn)	13	6.51 µM [rising, single point]	
CN(CCCC(=O)N1CCCC(C(N)=O)C1)S(=O)(=O)c1ccc(F)cc1 (stereo not drawn)	-6.58		
Cc1nc(NC(=O)c2cc3c(s2)CCCCC3)sc1C(=O)N(C)C	0.0835		0.731 µM [falling, single point]
Cc1ccc(S(=O)(=O)N/N=C/c2c(C)nn(-c3ccccc3)c2C)cc1			6.51 µM [rising, single point]
CCSC1=C(C#N)C(c2ccccc2C)CC(=O)N1 (stereo not drawn)	16.6		
COC(=O)c1cccc(NS(=O)(=O)c2ccc(OC)c(OC)c2)c1C	-48.5		
C/C(=N\NC(=O)CSc1nc(C)cc(C)n1)c1ccc([N+](=O)[O-])cc1			0.731 µM [falling, single point]
CC(C)(C)C1(C)OC(=O)C(=Cc2ccc(OCC(=O)Nc3ccccc3)cc2)C(=O)O1 (stereo not drawn)	-13.1		0.461 µM [falling, full curve, poor fit]
CCOC(=O)NC(=O)CSc1nc2ccccc2[nH]1	-39.3	4.61 µM [falling, single point]	6.51 µM [falling, single point]
COc1cc2c(cc1OC)CN(C(=O)c1cccs1)CC2	-20.1		29.1 µM [falling, single point]
COC(=O)C1=C(C)NC(=S)NC1c1ccc(-c2cc(Cl)ccc2Cl)o1 (stereo not drawn)	8.75		1.16 µM [rising, full curve, poor fit]
Cc1ccc(C(CNS(=O)(=O)c2ccc([N+](=O)[O-])cc2)N2CCN(C)CC2)cc1 (stereo not drawn)	-31.8	0.184 µM [falling, full curve]	0.651 µM [falling, full curve]
NC(=O)c1ccccc1N/C=C/C(=O)c1ccccc1	-22.1		
COc1ccc(CC(=O)N(C)CC(=O)Nc2ccccc2C(F)(F)F)cc1S(=O)(=O)N1CCOCC1	-26.9		6.51 µM [falling, single point]
COc1cc(/C=N\NC(=O)C2C(=O)NCC2c2ccccc2)cc(OC)c1O (stereo not drawn)	-7.88		0.259 µM [rising, full curve, poor fit]
Cn1nc(-c2ccccc2)c(CSc2ccccc2Cl)c1Cl		2.31 µM [rising, single point]	10.3 µM [rising, single point]
C=CCSC1=C(C#N)C(c2ccc(C(C)C)cc2)CC(=O)N1 (stereo not drawn)	-49.6	23.1 µM [falling, single point]	18.4 µM [falling, partial curve, poor fit]
Cc1cc(C)nc(N2CCC(C(=O)NCc3cccs3)CC2)n1	-58.8	16.4 µM [falling, partial curve]	

Structure (SMILES)	cell number change [%]	AC50 [1]	AC50 [2]
CC(C)c1nnc(NC(=O)CSc2nnc(-c3ccco3)o2)s1	-8.79		0.82 µM [falling, single point]
COC(=O)c1c(NS(=O)(=O)c2ccccc2)csc1C	31.4	7.31 µM [rising, partial curve, poor fit]	1.46 µM [rising, partial curve]
Cc1ccc(-c2n[nH]c(=S)n2/N=C/C=C\c2ccccc2[N+](=O)[O-])cc1	-5.27		
CCOc1ccc(C2=CSC3=NCCN23)cc1Cl	-8.24		4.61 µM [falling, single point]
CCOc1ccccc1NC(=O)c1c(NC(=O)CNCc2ccco2)sc2c1CCC2	13.3		0.116 µM [falling, full curve, poor fit]
Cc1nc2cc(C(=O)OCC(=O)N(CC(C)C)C3CCS(=O)(=O)C3)ccc2n1-c1ccccc1 (stereo not drawn)	18.6		4.61 µM [rising, full curve, poor fit]
CCN(CC)S(=O)(=O)c1ccc2c(c1)c(=O)c(C(=O)NCCN(C)CCc1ccccc1)cn2C	-6.05		
O=C(NCc1nnc(SCC(=O)N2CCCC2)o1)c1cccc(C(F)(F)F)c1	1.3		
CCCNC(=O)c1c(CSc2ccccc2)noc1C(=O)NCc1ccccc1	-3.13		0.651 µM [rising, single point]
O=C(Oc1c(Cl)cc(Cl)c2cccnc12)c1cccs1	-25.1		20.6 µM [falling, single point]
CC(C)(C)CNC(=O)c1ccc2c(c1)S(=O)(=O)c1cc(Cl)ccc1C2=O	-32.3	29.1 µM [falling, single point]	
CCOC(=O)C1CCN(CCC(=O)Nc2ccc(Br)cc2)CC1	7.04		29.1 µM [rising, single point]
Cc1cc2c(c(=O)n1CCN(C)C)C(c1ccccc1Br)C(C#N)=C(N)O2 (stereo not drawn)	2.99		
Cc1ccc(NC(=O)CSc2nc(N)cc(N)n2)cc1S(=O)(=O)N1CCOCC1	-51.4	29.1 µM [falling, single point]	29.1 µM [falling, single point]
O=C(O)c1cc(Cl)ccc1NC(=O)C1CCCO1 (stereo not drawn)	-8.49		0.00651 µM [rising, full curve, poor fit]
CCCc1nnc(SCC(=O)Nc2nccs2)o1	6.41		
CCC(C)c1ccc(OCCN2CCCC2)cc1 (stereo not drawn)			0.0517 µM [falling, full curve, poor fit]
O=C(Cc1ccc(Cl)cc1)NCCCn1ccnc1	58.8	11.6 µM [rising, partial curve]	20.6 µM [rising, partial curve]
CN(CCOc1ccccc1)C(=O)C1CCC(=O)N(CCN2CCOCC2)C1 (stereo not drawn)	-18.9		29.1 µM [falling, single point]
O=C(N/N=C/c1ccc(Br)s1)c1c[nH]c2ccccc12	-34.4	11.6 µM [falling, partial curve, poor fit]	1.3 µM [rising, partial curve]

Quoted at random: 3 entries already listed
Structure (SMILES)	cell number change [%]	AC50 [1]	AC50 [2]
CCC(C)c1ccc(OCCN2CCCC2)cc1 (stereo not drawn)			0.0517 µM [falling, full curve, poor fit]
CCOc1ccccc1NC(=O)c1c(NC(=O)CNCc2ccco2)sc2c1CCC2	13.3		0.116 µM [falling, full curve, poor fit]
C/C(=N\NC(=O)CSc1nc(C)cc(C)n1)c1ccc([N+](=O)[O-])cc1			0.731 µM [falling, single point]
